From paper PMC10674851 (Pharmaceuticals, 2023)

Test: general procedure: Fmoc solid-phase peptide synthesis; Wang resin; HBTU; OxymaPure
Settings: whole synthesis, RP-HPLC, 214 nm

## PEPTIDE1{A.P.L.V.S.W}$$$$V2.0
  final HPLC purity: 99%

Some peptides are written in HELM: one residue between dots, names in brackets for other building blocks, links after the first $.
